Some of the results follow.
Legend:
Assay in all cases: log2 fold change, soluble protein after heating vs DMSO (PISA); higher = thermal stabilisation; K562 cells, 10 uM, 30 min; active = over 0.2 and 3.5 SD of the protein, either way, in both replicates (recomputed)
[1] = compound: NC(=O)Nc1cc(-c2cccc(F)c2)sc1C(=O)N[C@H]1CCCNC1
Method in brief: (§1)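 K562 cells (2×10^6 cells/mL) were treated with 10 μM compound for 30 min, and aliquots were heated for 3 min over 48°C-58°C. Pooled aliquots were extracted in PBS with 0.5% NP-40 at 4°C, and the supernatant after 21,000xg for 90 min was measured by TMTpro 16plex LC-MS/MS with channel sums equalised. Reported thermal stability, relative to control samples and from duplicates, is a log2 fold change.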

Protein sequences, listed by entry. Tags and fused reporters are not part of them. Lines headed by an entry give the natural chain unless they say otherwise; changes in a name come on top.
UniProt Q7Z4S6: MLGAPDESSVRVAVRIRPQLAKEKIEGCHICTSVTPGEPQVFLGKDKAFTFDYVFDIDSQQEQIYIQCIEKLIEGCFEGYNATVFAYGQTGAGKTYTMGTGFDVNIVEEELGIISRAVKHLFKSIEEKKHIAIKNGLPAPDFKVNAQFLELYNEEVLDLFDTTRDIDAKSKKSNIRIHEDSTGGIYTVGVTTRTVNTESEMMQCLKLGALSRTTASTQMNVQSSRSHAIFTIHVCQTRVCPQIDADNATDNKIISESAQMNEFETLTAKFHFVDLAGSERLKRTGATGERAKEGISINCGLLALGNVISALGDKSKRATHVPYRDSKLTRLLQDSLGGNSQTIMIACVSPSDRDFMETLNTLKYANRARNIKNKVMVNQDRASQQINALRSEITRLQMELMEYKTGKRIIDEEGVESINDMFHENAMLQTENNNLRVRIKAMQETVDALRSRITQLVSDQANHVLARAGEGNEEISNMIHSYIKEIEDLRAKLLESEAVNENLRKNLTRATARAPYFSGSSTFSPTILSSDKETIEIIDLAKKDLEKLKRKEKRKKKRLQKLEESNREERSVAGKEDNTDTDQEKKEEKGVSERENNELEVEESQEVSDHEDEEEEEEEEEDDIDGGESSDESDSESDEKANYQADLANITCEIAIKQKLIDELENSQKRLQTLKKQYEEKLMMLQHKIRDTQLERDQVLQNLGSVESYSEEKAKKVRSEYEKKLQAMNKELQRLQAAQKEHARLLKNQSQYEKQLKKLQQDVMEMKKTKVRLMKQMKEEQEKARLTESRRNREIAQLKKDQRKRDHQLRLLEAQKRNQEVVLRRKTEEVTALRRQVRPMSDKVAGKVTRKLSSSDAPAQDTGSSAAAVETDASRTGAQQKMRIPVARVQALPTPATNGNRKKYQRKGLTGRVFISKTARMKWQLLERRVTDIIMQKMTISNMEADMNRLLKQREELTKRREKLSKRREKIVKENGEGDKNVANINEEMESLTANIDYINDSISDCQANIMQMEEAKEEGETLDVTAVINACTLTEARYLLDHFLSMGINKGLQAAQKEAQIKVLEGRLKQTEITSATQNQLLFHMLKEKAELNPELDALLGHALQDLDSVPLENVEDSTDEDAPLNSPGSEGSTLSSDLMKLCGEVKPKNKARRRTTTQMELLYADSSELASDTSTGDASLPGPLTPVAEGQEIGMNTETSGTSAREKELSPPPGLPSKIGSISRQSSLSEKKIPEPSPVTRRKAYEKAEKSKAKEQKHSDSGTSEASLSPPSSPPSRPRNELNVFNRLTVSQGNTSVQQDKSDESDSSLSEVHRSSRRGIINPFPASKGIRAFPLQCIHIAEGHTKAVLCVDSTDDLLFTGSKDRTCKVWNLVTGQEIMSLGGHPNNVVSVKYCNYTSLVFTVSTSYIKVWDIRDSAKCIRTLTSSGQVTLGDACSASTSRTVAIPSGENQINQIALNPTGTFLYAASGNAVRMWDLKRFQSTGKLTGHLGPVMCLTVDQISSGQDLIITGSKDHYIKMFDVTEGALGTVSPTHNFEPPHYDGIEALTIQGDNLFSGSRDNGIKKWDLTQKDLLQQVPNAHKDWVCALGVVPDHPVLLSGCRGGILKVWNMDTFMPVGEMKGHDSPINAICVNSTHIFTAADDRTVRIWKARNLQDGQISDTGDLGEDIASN
UniProt Q13303: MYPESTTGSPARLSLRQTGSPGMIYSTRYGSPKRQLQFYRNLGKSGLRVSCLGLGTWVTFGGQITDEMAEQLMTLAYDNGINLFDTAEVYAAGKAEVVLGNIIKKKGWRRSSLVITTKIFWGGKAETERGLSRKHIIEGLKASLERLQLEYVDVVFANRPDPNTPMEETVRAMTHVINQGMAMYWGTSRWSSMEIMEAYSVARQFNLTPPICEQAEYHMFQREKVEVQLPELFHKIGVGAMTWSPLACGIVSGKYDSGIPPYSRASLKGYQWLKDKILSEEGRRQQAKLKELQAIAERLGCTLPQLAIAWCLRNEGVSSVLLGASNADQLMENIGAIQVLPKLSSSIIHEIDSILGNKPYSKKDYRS
UniProt Q15652: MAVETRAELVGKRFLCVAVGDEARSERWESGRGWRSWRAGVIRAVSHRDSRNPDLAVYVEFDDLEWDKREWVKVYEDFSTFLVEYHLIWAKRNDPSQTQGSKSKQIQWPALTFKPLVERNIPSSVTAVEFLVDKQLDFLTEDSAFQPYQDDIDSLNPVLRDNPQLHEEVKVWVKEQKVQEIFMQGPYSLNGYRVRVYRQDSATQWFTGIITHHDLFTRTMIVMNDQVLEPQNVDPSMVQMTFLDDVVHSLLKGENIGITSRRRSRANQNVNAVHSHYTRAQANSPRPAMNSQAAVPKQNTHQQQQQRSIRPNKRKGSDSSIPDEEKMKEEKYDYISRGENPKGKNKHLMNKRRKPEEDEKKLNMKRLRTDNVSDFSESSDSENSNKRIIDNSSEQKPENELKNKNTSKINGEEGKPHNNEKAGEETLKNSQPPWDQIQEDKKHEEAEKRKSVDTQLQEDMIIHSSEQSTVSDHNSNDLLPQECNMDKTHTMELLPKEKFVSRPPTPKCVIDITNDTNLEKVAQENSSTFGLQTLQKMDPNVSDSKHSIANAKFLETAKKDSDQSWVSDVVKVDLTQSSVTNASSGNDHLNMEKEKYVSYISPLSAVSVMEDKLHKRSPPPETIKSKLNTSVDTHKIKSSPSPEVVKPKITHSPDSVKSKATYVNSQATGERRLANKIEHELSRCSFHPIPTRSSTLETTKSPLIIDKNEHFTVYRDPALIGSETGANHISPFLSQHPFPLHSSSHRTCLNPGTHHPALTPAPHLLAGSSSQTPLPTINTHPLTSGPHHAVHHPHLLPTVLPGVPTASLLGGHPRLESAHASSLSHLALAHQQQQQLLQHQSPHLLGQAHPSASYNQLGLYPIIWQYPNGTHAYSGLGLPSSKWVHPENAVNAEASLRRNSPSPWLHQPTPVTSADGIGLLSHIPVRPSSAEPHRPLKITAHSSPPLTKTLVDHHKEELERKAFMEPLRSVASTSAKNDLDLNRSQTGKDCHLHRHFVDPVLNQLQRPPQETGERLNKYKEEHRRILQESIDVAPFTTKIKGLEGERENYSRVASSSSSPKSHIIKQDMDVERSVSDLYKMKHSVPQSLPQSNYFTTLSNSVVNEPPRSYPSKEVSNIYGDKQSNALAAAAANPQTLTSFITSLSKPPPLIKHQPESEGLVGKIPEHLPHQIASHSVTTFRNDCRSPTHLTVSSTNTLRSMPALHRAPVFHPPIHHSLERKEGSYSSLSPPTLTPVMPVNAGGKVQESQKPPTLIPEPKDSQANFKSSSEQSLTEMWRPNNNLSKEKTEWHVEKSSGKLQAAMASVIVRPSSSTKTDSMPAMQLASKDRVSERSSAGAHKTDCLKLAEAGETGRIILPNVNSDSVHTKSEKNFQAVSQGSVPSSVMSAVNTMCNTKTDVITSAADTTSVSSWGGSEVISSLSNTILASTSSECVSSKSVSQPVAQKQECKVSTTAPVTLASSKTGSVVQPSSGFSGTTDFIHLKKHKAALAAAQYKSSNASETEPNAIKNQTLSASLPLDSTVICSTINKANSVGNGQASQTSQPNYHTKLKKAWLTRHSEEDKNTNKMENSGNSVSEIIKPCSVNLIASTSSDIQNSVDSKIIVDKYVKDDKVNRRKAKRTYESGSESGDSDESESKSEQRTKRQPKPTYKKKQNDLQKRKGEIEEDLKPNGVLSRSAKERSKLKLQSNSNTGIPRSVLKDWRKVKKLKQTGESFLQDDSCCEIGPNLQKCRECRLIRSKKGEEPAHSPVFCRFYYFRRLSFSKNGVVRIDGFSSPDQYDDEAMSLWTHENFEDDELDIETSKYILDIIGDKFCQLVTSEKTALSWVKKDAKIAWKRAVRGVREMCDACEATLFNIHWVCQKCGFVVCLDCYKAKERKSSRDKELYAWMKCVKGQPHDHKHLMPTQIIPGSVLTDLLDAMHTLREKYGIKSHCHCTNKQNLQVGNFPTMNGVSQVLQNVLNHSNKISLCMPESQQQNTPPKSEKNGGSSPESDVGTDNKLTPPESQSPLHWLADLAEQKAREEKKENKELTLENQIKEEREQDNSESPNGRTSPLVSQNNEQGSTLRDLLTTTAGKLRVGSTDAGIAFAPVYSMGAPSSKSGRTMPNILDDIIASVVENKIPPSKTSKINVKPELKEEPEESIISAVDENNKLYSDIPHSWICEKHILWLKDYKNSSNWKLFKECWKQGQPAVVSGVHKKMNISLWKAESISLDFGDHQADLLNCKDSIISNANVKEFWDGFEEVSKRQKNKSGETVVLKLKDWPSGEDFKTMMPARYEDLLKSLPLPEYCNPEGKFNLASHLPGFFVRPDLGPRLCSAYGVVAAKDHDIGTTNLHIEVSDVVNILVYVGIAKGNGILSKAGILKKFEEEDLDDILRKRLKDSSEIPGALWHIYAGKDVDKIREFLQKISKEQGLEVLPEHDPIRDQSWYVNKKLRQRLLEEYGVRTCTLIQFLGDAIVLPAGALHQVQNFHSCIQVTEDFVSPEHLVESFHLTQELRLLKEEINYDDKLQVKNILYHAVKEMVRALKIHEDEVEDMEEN
UniProt Q8IZA0: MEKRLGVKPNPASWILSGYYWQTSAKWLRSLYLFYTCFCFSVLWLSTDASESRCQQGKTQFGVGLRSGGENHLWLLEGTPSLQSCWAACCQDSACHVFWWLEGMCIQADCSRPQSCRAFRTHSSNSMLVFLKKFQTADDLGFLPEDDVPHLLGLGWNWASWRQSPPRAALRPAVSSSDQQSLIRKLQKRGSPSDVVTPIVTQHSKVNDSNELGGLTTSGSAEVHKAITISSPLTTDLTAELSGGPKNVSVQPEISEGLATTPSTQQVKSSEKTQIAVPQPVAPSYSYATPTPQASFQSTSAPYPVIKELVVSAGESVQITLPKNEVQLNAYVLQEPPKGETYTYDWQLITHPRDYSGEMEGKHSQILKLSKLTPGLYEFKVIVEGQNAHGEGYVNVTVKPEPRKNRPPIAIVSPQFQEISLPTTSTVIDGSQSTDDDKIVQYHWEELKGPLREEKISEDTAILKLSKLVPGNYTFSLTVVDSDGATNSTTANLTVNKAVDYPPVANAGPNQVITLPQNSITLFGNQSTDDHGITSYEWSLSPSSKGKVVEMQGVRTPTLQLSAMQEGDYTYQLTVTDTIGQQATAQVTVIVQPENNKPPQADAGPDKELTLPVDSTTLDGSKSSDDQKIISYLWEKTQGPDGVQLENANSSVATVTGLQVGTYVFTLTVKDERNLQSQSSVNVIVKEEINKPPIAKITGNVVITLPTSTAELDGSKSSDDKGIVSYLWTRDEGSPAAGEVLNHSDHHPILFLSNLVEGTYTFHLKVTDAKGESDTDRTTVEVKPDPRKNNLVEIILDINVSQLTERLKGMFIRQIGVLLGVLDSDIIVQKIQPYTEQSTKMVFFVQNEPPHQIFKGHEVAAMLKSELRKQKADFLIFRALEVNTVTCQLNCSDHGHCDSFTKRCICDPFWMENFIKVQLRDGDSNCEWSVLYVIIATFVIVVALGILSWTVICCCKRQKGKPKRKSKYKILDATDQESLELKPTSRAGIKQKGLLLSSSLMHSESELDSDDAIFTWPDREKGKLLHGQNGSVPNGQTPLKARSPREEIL
UniProt Q8IXV7: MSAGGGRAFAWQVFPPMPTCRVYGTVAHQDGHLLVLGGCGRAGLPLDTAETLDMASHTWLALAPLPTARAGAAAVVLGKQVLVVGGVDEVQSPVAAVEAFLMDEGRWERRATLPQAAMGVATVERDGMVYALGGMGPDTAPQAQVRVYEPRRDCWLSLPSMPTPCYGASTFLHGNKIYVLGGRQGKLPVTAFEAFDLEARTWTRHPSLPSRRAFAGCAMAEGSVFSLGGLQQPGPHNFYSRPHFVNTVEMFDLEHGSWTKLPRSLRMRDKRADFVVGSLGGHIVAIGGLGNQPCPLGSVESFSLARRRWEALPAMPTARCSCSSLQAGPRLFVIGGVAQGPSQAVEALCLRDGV
UniProt Q9H7Z6: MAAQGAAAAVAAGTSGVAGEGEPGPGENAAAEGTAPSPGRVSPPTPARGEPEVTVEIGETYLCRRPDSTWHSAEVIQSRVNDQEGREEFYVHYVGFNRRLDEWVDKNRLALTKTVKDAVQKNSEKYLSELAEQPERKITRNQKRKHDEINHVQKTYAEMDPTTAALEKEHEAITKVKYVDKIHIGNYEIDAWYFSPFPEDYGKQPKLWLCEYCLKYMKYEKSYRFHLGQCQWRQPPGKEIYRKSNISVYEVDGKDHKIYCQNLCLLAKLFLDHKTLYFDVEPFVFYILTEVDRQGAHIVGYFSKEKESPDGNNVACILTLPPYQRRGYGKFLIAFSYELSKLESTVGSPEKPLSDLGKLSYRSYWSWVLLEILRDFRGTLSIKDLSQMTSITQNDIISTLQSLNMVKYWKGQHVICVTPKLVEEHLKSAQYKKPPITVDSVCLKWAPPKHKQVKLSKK

[2] = compound: NC(=O)c1cnc(N[C@@H]2CCCC[C@@H]2N)nc1Nc1cccc(-n2nccn2)c1
Method in brief: as §1

[3] = compound: NC1(c2ccc(-c3nc4ccn5c(=O)[nH]nc5c4cc3-c3ccccc3)cc2)CCC1
Method in brief: as §1

[4] = compound: NCC(=O)Nc1ccc(-n2nc(C(F)(F)F)cc2-c2ccc3c(ccc4ccccc43)c2)cc1
Method in brief: as §1

[5] = compound: Nc1ccccc1NC(=O)c1ccc(CNC(=O)OCc2cccnc2)cc1 [entinostat]
Method in brief: as §1

[6] = compound: O=C(CCCCCCC(=O)Nc1ccccc1)NO [vorinostat]
Method in brief: as §1

[7] = compound: O=C(CCCCCCNC(=O)c1cnc(N(c2ccccc2)c2ccccc2Cl)nc1)NO [citarinostat]
Method in brief: as §1

[8] = compound: O=C(O)c1ccc2c(c1)nc(Nc1cccc(Cl)c1)c1ccncc12 [silmitasertib]
Method in brief: as §1

[9] = compound: O=C1NC(=O)C(c2cnc3ccccn23)=C1c1cn2c3c(cc(F)cc13)CN(C(=O)N1CCCCC1)CC2
Method in brief: as §1

[10] = compound: c1cc(OCCN2CCCCC2)cc(-c2n[nH]c3ccc(-c4nnc[nH]4)cc23)c1
Method in brief: as §1

Measured: log2 fold change

KDM5D isoform 3 (UniProt Q9BY66)
inactive: [1] -0.038 | [2] -0.012 | [3] -0.134 | [4] -0.025 | [5] 0.135 | [6] 0.006 | [7] 0.198 | [8] 0.176 | [9] 0 | [10] -0.096

KIAA1522 isoform 2 (UniProt Q9P206)
inactive: [1] -0.099 | [2] -0.203 | [3] 0.116 | [4] 0.117 | [5] 0.087 | [6] 0.03 | [7] 0 | [8] 0.036 | [9] 0.063 | [10] -0.128

KIF21A isoform 4 (UniProt Q7Z4S6)
inactive: [1] -0.068 | [2] 0.055 | [3] -0.049 | [4] -0.093 | [5] 0.01 | [6] 0.012 | [7] 0.002 | [8] 0.033 | [9] 0.213 | [10] -0.087

KCTD10 (UniProt Q9H3F6)
inactive: [1] 0.065 | [2] 0.226 | [3] 0.028 | [4] 0.077 | [5] -0.014 | [6] -0.001 | [7] -0.05 | [8] -0.042 | [9] -0.088 | [10] -0.025

KATNA1 (UniProt O75449)
inactive: [1] 0.021 | [2] -0.02 | [3] -0.043 | [4] -0.016 | [5] 0.012 | [6] -0.041 | [7] -0.062 | [8] -0.033 | [9] 0.026 | [10] -0.073

KPNA3 (UniProt O00505)
inactive: [1] 0.045 | [2] -0.064 | [3] -0.111 | [4] -0.036 | [5] -0.017 | [6] -0.027 | [7] 0.045 | [8] -0.015 | [9] -0.012 | [10] -0.056

KIF1B isoform 4 (UniProt O60333)
inactive: [1] 0.043 | [2] -0.059 | [3] -0.16 | [4] -0.03 | [5] 0.011 | [6] 0.063 | [7] 0.054 | [8] 0.009 | [9] -0.037 | [10] -0.062

KEAP1 (UniProt Q14145)
inactive: [1] 0.007 | [2] -0.027 | [3] -0.076 | [4] -0.034 | [5] 0.051 | [6] 0.156 | [7] -0.005 | [8] 0.122 | [9] 0.143 | [10] -0.055

KIF13B (UniProt Q9NQT8)
inactive: [1] -0.131 | [2] 0.021 | [3] 0.242 | [5] -0.029 | [6] -0.107 | [7] -0.127 | [8] 0.166 | [9] 0.009 | [10] -0.066

KIAA0100 (UniProt Q14667)
inactive: [1] 0.015 | [2] -0.014 | [3] -0.013 | [4] 0.017 | [5] -0.019 | [6] 0.052 | [7] -0.009 | [8] -0.015 | [9] -0.039 | [10] 0.004

KNG1 (UniProt P01042)
inactive: [1] -0.055 | [2] -0.048 | [3] 0.312 | [4] -0.054 | [5] -0.127 | [6] 0.078 | [7] -0.119 | [8] 0.254 | [10] 0.374

KAT7 (UniProt O95251)
inactive: [1] -0.066 | [2] 0.037 | [3] -0.001 | [4] 0.008 | [5] -0.067 | [7] -0.004 | [8] -0.151 | [10] 0.024

KIF14 (UniProt Q15058)
inactive: [1] -0.077 | [2] 0.003 | [3] -0.158 | [4] 0.001 | [5] -0.061 | [7] 0.074 | [8] 0.158 | [9] 0.081 | [10] -0.135

KLHL7 (UniProt Q8IXQ5)
inactive: [1] -0.027 | [2] 0.16 | [4] 0.249 | [5] 0.034 | [9] -0.02

KCNAB2 (UniProt Q13303)
inactive: [1] 0.04 | [2] -0.016 | [3] -0.069 | [4] -0.04 | [5] -0.021 | [6] -0.1 | [7] 0.117 | [8] 0.037 | [9] -0.037 | [10] -0.051

JMJD1C (UniProt Q15652)
inactive: [1] -0.044 | [2] -0.041 | [3] -0.006 | [4] -0.064 | [5] 0.036 | [6] 0.088 | [7] 0.104 | [8] 0.134 | [9] -0.025 | [10] -0.018

KBTBD4 isoform 2 (UniProt Q9NVX7)
inactive: [1] 0.03 | [2] -0.027 | [3] -0.056 | [4] -0.01 | [5] -0.045 | [7] 0.018 | [8] -0.037 | [9] -0.112 | [10] 0.068

JAG2 (UniProt Q9Y219)
inactive: [1] 0.006 | [2] 0.125 | [4] -0.033 | [5] -0.01 | [9] 0.051

KIF11 (UniProt P52732)
inactive: [1] -0.096 | [2] -0.075 | [3] -0.001 | [4] -0.067 | [5] 0.023 | [6] 0.099 | [7] -0.006 | [8] 0.147 | [9] 0.182 | [10] -0.044

KMT2C isoform 3 (UniProt Q8NEZ4)
active: [3] -0.756
inactive: [1] -0.021 | [2] 0.046 | [4] -0.006 | [5] -0.03 | [6] 0.19 | [7] 0.104 | [8] -0.052 | [9] -0.094 | [10] -0.076

KLHL18 (UniProt O94889)
inactive: [1] 0.132 | [2] -0.034 | [3] -0.145 | [4] -0.123 | [5] -0.045 | [6] 0.137 | [7] 0.123 | [8] -0.029 | [9] -0.014 | [10] -0.022

KNTC1 (UniProt P50748)
inactive: [1] -0.037 | [2] -0.1 | [3] -0.193 | [4] -0.046 | [5] 0.049 | [6] 0.029 | [7] 0.037 | [8] 0.077 | [9] 0.013 | [10] -0.004

KLHDC3 (UniProt Q9BQ90)
inactive: [1] -0.026 | [2] 0.055 | [4] 0.067 | [5] 0.003 | [6] 0.1 | [7] -0.08 | [9] 0.042 | [10] -0.134

KLF3 (UniProt P57682)
inactive: [1] 0.073 | [2] 0.029 | [3] 0.044 | [4] 0.018 | [5] -0.08 | [6] 0.192 | [8] 0.101 | [9] -0.011

Random excerpt: two records from the list.
KNTC1 (UniProt P50748)
inactive: [1] -0.037 | [2] -0.1 | [3] -0.193 | [4] -0.046 | [5] 0.049 | [6] 0.029 | [7] 0.037 | [8] 0.077 | [9] 0.013 | [10] -0.004

KLHDC3 (UniProt Q9BQ90)
inactive: [1] -0.026 | [2] 0.055 | [4] 0.067 | [5] 0.003 | [6] 0.1 | [7] -0.08 | [9] 0.042 | [10] -0.134

Next results.

JPT2 isoform 2 (UniProt Q9H910)
inactive: [1] 0.015 | [2] 0.11 | [3] 0.074 | [4] 0.18 | [5] 0.033 | [7] 0.1 | [8] -0.233 | [10] 0.046

KCTD15 (UniProt Q96SI1)
inactive: [1] -0.093 | [2] -0.045 | [3] -0.021 | [4] 0.022 | [5] -0.045 | [6] -0.045 | [7] 0.021 | [8] -0.028 | [9] 0.028 | [10] 0.002

KIAA0319L (UniProt Q8IZA0)
inactive: [1] -0.025 | [2] 0.011 | [3] -0.1 | [4] 0.067 | [5] -0.017 | [6] -0.036 | [7] 0.011 | [8] 0.007 | [9] -0.018 | [10] -0.037

KATNAL1 (UniProt Q9BW62)
inactive: [1] -0.166 | [2] -0.22 | [4] 0.012 | [5] 0.138 | [9] -0.324

KLHDC8B (UniProt Q8IXV7)
inactive: [1] 0 | [2] 0.029 | [3] -0.252 | [4] -0.023 | [5] -0.044 | [6] -0.157 | [8] 0.319

KAT8 isoform 2 (UniProt Q9H7Z6)
inactive: [1] 0.021 | [2] -0.179 | [3] -0.136 | [4] 0.049 | [5] 0.014 | [6] 0.013 | [8] 0.017

KIAA0513 (UniProt O60268)
inactive: [1] -0.087 | [2] -0.027 | [3] -0.135 | [4] 0 | [5] -0.032 | [6] 0.048 | [8] 0.005

KLHL7 isoform 3 (UniProt Q8IXQ5)
inactive: [1] 0.125 | [2] 0.157 | [3] -0.04 | [5] 0.005 | [8] -0.287 | [9] -0.123

KCNN4 (UniProt O15554)
inactive: [1] 0.289 | [2] 0.076 | [3] -0.093 | [4] 0.145 | [5] 0.049 | [7] -0.015 | [8] 0.153 | [10] -0.239
